Measured values from publication PMC9612826.
Results are given in words; binding and its absence hold for the method and conditions named. In cells and extracts the contact can be indirect. For some assays here: A result given as binding can be weak or reduced; the word gives no strength. For some assays here: Sequences can lack the tags named with a protein.

T1: TEF-mCherry (Drosophila melanogaster) (UniProt Q7K4M4)
T1 sequence: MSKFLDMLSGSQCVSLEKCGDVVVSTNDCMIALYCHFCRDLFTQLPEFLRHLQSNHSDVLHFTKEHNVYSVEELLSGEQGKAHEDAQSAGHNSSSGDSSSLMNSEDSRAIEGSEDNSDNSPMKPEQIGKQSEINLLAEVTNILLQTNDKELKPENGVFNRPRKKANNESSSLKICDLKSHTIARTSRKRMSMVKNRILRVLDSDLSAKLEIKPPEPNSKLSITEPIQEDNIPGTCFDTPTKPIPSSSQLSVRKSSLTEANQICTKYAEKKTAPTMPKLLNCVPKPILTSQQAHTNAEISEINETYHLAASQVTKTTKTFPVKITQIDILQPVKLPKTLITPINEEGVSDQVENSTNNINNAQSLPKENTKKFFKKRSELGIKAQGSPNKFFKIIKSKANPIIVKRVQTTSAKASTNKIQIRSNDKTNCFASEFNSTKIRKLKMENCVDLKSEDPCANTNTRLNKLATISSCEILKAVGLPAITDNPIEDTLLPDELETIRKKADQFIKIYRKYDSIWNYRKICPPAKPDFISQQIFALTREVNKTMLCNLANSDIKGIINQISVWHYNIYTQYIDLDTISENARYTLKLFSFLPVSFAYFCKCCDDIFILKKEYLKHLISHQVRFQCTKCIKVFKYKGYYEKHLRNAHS

T2: TEF-EGFP (Drosophila melanogaster) (UniProt Q7K4M4)
T2 sequence: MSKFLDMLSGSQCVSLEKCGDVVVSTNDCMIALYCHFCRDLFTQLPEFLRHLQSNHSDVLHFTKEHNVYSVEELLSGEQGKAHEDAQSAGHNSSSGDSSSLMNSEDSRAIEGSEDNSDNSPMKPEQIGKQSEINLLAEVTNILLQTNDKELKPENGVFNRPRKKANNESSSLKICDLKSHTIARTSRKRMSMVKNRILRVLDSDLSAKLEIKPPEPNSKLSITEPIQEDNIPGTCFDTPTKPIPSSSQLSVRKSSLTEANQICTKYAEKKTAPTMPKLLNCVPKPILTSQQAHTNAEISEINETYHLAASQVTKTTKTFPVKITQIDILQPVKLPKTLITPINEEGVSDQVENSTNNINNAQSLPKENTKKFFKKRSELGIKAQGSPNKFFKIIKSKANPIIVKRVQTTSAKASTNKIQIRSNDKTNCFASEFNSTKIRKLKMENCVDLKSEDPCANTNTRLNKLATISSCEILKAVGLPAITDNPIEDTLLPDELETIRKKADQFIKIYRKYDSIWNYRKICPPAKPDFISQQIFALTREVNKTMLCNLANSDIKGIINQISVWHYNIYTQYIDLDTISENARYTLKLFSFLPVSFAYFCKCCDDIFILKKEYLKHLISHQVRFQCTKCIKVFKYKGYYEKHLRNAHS

T3: TEF_Na-EGFP (Drosophila melanogaster) (UniProt Q7K4M4)
T3 sequence: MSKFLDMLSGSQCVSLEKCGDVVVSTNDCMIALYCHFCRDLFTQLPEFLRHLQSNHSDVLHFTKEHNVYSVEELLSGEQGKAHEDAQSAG


Legend:
[1] = biological target: T1, TEF-mCherry (Drosophila melanogaster); assay: co-IP; S2R+ cells transiently co-expressing the tagged proteins; cleared lysate (20 mM Tris-HCl pH 7.5, 300 mM NaCl, 2 mM MgCl2, 0.1% Nonidet P-40 Substitute, 5% glycerol, 0.5 mM EGTA, 1 mM DTT, Benzonase) on RFP-Trap agarose (anti-mCherry), 1 hour, 4°C; immunoblot
[2] = biological target: T2, TEF-EGFP (Drosophila melanogaster); assay: co-IP; S2R+ cells transiently co-expressing the tagged proteins; cleared lysate (20 mM Tris-HCl pH 7.5, 300 mM NaCl, 2 mM MgCl2, 0.1% Nonidet P-40 Substitute, 5% glycerol, 0.5 mM EGTA, 1 mM DTT, Benzonase) on GFP-Trap agarose (anti-EGFP), 1 hour, 4°C; immunoblot
[3] = biological target: T3, TEF_Na-EGFP (Drosophila melanogaster); assay: as above
[4] = biological target: UNO-mCherry (Drosophila melanogaster); assay: co-IP; S2R+ cells transiently co-expressing the tagged proteins; cleared lysate (20 mM Tris-HCl pH 7.5, 300 mM NaCl, 2 mM MgCl2, 0.1% Nonidet P-40 Substitute, 5% glycerol, 0.5 mM EGTA, 1 mM DTT, Benzonase) on RFP-Trap agarose (anti-mCherry), 1 hour, 4°C; immunoblot
[5] = biological target: MNM-mCherry (Drosophila melanogaster); assay: as above

binding [1] | binding [2] | Molecule | other results
binds | – | MNM-EGFP (Drosophila melanogaster) | –
– | no binding | Mod(mdg4)_P-mCherry (Drosophila melanogaster) | –
no binding | – | SNM-EGFP (Drosophila melanogaster) | –

The next lines start with the molecule.

Molecule | binding [1] | binding [2] | other results
MNM-mCherry (Drosophila melanogaster) | – | binds | binding [3]: binds
Mod(mdg4)_C-mCherry (Drosophila melanogaster) | – | no binding | –
TEF-EGFP (protein, UniProt Q7K4M4 1-649) MSKFLDMLSGSQCVSLEKCGDVVVSTNDCMIALYCHFCRDLFTQLPEFLRHLQSNHSDVLHFTKEHNVYSVEELLSGEQGKAHEDAQSAGHNSSSGDSSSLMNSEDSRAIEGSEDNSDNSPMKPEQIGKQSEINLLAEVTNILLQTNDKELKPENGVFNRPRKKANNESSSLKICDLKSHTIARTSRKRMSMVKNRILRVLDSDLSAKLEIKPPEPNSKLSITEPIQEDNIPGTCFDTPTKPIPSSSQLSVRKSSLTEANQICTKYAEKKTAPTMPKLLNCVPKPILTSQQAHTNAEISEINETYHLAASQVTKTTKTFPVKITQIDILQPVKLPKTLITPINEEGVSDQVENSTNNINNAQSLPKENTKKFFKKRSELGIKAQGSPNKFFKIIKSKANPIIVKRVQTTSAKASTNKIQIRSNDKTNCFASEFNSTKIRKLKMENCVDLKSEDPCANTNTRLNKLATISSCEILKAVGLPAITDNPIEDTLLPDELETIRKKADQFIKIYRKYDSIWNYRKICPPAKPDFISQQIFALTREVNKTMLCNLANSDIKGIINQISVWHYNIYTQYIDLDTISENARYTLKLFSFLPVSFAYFCKCCDDIFILKKEYLKHLISHQVRFQCTKCIKVFKYKGYYEKHLRNAHS | – | – | binding [4]: no binding; binding [5]: binds
